The test system of the data set is E47 (TCF3/E2A) (Homo sapiens). Put plainly: EMSA. Conditions: protein in an extract. (In general: Mobility shift assays separate free from complexed probe on a gel.)

Chains of the proteins cited; added tags and fusions are not shown. Where a name states a change or a piece, a line headed by the entry shows the natural chain unless it says otherwise. A line that says so, or that is headed by a name, gives the form on record, which may keep a tag or linker.
E47 (TCF3/E2A) (Homo sapiens), one chain, as listed by the source: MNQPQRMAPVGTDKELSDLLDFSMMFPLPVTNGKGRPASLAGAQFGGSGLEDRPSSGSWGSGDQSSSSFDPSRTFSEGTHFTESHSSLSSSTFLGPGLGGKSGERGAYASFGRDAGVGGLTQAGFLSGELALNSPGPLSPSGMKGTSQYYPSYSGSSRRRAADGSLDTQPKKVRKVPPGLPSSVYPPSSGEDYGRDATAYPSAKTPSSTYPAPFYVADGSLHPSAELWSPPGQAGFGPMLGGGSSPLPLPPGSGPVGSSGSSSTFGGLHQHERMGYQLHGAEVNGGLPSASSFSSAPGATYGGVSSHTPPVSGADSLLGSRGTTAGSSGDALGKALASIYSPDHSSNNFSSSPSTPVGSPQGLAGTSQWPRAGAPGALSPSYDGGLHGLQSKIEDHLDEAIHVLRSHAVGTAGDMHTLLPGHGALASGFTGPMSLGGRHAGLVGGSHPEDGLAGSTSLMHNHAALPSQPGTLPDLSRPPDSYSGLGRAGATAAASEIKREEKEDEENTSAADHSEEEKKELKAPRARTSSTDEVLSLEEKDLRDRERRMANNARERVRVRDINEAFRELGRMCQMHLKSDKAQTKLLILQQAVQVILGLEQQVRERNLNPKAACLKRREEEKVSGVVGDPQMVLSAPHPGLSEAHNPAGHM

The values below come from US20110027783.

Construct, isoform or probe ends are uncertain for at least one entry. Results from cells or extracts need not show a direct contact.

As to “CGGGCCGGCAGCAGCGGCTGGAGTCGTATGGCAGTGAGCCGCTGTCTACC (double strand) [EXO1P_rs1776180_G]”, the binding result is recorded as “binds”.
